{"source": "the supplement of paper PMC5949888", "note": "Most values lie at the floor of the assay. Slopes are relative: functional sequences can read slightly below zero.", "data": [{"test_system": "Saccharomyces cerevisiae PS128 hsf1 delta, HSF1(1-493) fusion", "test": "growth estimate (transactivation domain function in HSF1 fusion, heat-shock survival) (a.u. (slope of normalised read count over time)); higher = stronger growth at 37°C, i.e. more transactivation activity", "settings": "library: random library", "values": [{"substance": "QGEPSQATTRIRPGHSDASL", "growth estimate": "< -0.25"}, {"substance": "QGGDYTAWTFQVQSYQSSRP", "growth estimate": "< -0.25"}, {"substance": "QGGRT", "growth estimate": "< -0.25"}, {"substance": "QGGYCACTLVLRAIEAAHYD", "growth estimate": "< -0.25"}, {"substance": "QGHRRIAEVRILLGVSPGYV", "growth estimate": "< -0.25"}, {"substance": "QGIFASDNHGV", "growth estimate": "< -0.25"}, {"substance": "QGIGPRET", "growth estimate": "< -0.25"}, {"substance": "QGIPDGIRRQTT", "growth estimate": "< -0.25"}, {"substance": "QGKRYMCVQPVRSARSSQAC", "growth estimate": "< -0.25"}, {"substance": "QGLGP", "growth estimate": "< -0.25"}, {"substance": "QGLPIFRRSCGGAL", "growth estimate": "< -0.25"}, {"substance": "QGLR", "growth estimate": "< -0.25"}, {"substance": "QGMTLGESLKSGSVAVVHRE", "growth estimate": "< -0.25"}, {"substance": "QGNSLRVEPQSGTG", "growth estimate": "< -0.25"}, {"substance": "QGPV", "growth estimate": "< -0.25"}, {"substance": "QGQL", "growth estimate": "< -0.25"}, {"substance": "QGRAPCAIFLDSN", "growth estimate": -0.111}, {"substance": "QGRERGEFPRRL", "growth estimate": "< -0.25"}, {"substance": "QGRLRSRECILAVFPETNCG", "growth estimate": "< -0.25"}, {"substance": "QGRNLSTNHLC", "growth estimate": -0.25}, {"substance": "QGRVCVVSLRRSLFRFDGPP", "growth estimate": "< -0.25"}, {"substance": "QGTAIVKSAAPGGSWRSI", "growth estimate": "< -0.25"}, {"substance": "QGVDTSRGGGIPYNIPTYDR", "growth estimate": "< -0.25"}, {"substance": "QGYNL", "growth estimate": "< -0.25"}, {"substance": "QHDTSSREQEFRPFRFSGGR", "growth estimate": "< -0.25"}, {"substance": "QHDVKNNQIRN", "growth estimate": "< -0.25"}, {"substance": "QHKSLRQLGDFRFFPTRNSL", "growth estimate": "< -0.25"}, {"substance": "QHPYEIWRTL", "growth estimate": "< -0.25"}, {"substance": "QHRLEPITSRAILGNNYSRE", "growth estimate": "< -0.25"}, {"substance": "QHRT", "growth estimate": "< -0.25"}, {"substance": "QHSAVGLEPGCKRVALGPQS", "growth estimate": "< -0.25"}, {"substance": "QHTWKRYYHYNPCEMRDCVS", "growth estimate": "< -0.25"}, {"substance": "QIAIQSMGIFAELSRTSGHE", "growth estimate": "< -0.25"}, {"substance": "QICINTSA", "growth estimate": "< -0.25"}, {"substance": "QIFCACVRTITYAPIVGHTS", "growth estimate": "< -0.25"}, {"substance": "QIGCLHRLAVGGMHQGKT", "growth estimate": "< -0.25"}, {"substance": "QIGHPGKLTRH", "growth estimate": "< -0.25"}, {"substance": "QIGLYELLINDLRGYEWGAL", "growth estimate": -0.198}, {"substance": "QIIFSRKVY", "growth estimate": "< -0.25"}, {"substance": "QIIGQALFGEEV", "growth estimate": "< -0.25"}, {"substance": "QIRGSTLYIQPRSGVNSTA", "growth estimate": "< -0.25"}, {"substance": "QIVISHGPR", "growth estimate": "< -0.253"}, {"substance": "QIVRYAANEGELEQSAGFGA", "growth estimate": -0.246}, {"substance": "QIVTIIQVRETYQPYRNK", "growth estimate": "< -0.25"}, {"substance": "QKIIARPLRLYLY", "growth estimate": "< -0.25"}, {"substance": "QKLNVT", "growth estimate": "< -0.25"}, {"substance": "QKR", "growth estimate": "< -0.25"}, {"substance": "QKRGSASVGRGGTVLPPSWG", "growth estimate": "< -0.25"}, {"substance": "QKRMTE", "growth estimate": -0.227}, {"substance": "QKRVRTLPILLGCIGRLEAR", "growth estimate": "< -0.25"}, {"substance": "QKTE", "growth estimate": "< -0.25"}, {"substance": "QLCEGRSEPGRQAGYIM", "growth estimate": "< -0.25"}, {"substance": "QLDGFRT", "growth estimate": "< -0.25"}, {"substance": "QLDSSGVRVRSTPVSSATFN", "growth estimate": "< -0.25"}, {"substance": "QLFQFCLPVQEGDVIACPDT", "growth estimate": "< -0.25"}, {"substance": "QLGGLS", "growth estimate": "< -0.25"}, {"substance": "QLGLLRLLWVHTMGPCLEYA", "growth estimate": "< -0.25"}, {"substance": "QLGPG", "growth estimate": "< -0.25"}, {"substance": "QLGPRPRCEQHRPGSGWPSR", "growth estimate": "< -0.25"}, {"substance": "QLGS", "growth estimate": "< -0.25"}, {"substance": "QLGTH", "growth estimate": "< -0.25"}, {"substance": "QLIDDYCDRMSSVYHQPGHK", "growth estimate": "< -0.25"}, {"substance": "QLIVQERSYSRDVRAVPRPS", "growth estimate": "< -0.25"}, {"substance": "QLKIITRALGELNKLVWVRC", "growth estimate": "< -0.25"}, {"substance": "QLLQNESQIGPYLLRRWLYF", "growth estimate": "< -0.25"}, {"substance": "QLNE", "growth estimate": "< -0.25"}, {"substance": "QLNVIDRRRRDHSCCNIRVL", "growth estimate": "< -0.25"}, {"substance": "QLQAAKSNSIILTRGTQGKV", "growth estimate": "< -0.25"}, {"substance": "QLRLGLVDFLNTLDL", "growth estimate": "< -0.25"}, {"substance": "QLRSTGLGRSSPLLELTAPG", "growth estimate": "< -0.25"}, {"substance": "QLRYNVSTNGVIVIRKKVTH", "growth estimate": "< -0.25"}, {"substance": "QLSGWLGTSSLYFSWRQIRG", "growth estimate": -0.246}, {"substance": "QLSYAGVVTFERMRVAFYHM", "growth estimate": "< -0.25"}, {"substance": "QLTNHILNQPT", "growth estimate": "< -0.25"}, {"substance": "QLTVSSHQGLPVRVSENVAQ", "growth estimate": "< -0.25"}, {"substance": "QLVASDELVVLGPTTTPTRR", "growth estimate": "< -0.25"}, {"substance": "QLWSERAPLFGRSTEGALFH", "growth estimate": "< -0.25"}, {"substance": "QLYIRSAPGVLAKSSYLRQP", "growth estimate": "< -0.25"}, {"substance": "QMFCRSIT", "growth estimate": "< -0.25"}, {"substance": "QMFKRHHMCILVIYDHPATI", "growth estimate": "< -0.25"}, {"substance": "QMGARRLCWRARLDLFVSFI", "growth estimate": "< -0.25"}, {"substance": "QMGRPTGGPRVECLTRI", "growth estimate": "< -0.25"}, {"substance": "QMISRSGPELVGRYRYRYVL", "growth estimate": "< -0.25"}, {"substance": "QMNGW", "growth estimate": "< -0.25"}, {"substance": "QMSEGYCTATFTWVTWC", "growth estimate": -0.239}, {"substance": "QMSS", "growth estimate": "< -0.25"}, {"substance": "QMWDFTHSRDESGPCIGVTT", "growth estimate": "< -0.25"}, {"substance": "QNAGAMTAARPGGTAEASVV", "growth estimate": "< -0.25"}, {"substance": "QNAQTQLYDIADYVSGVRCD", "growth estimate": 0.877}, {"substance": "QNDWSVSRARFYWNIFSHRC", "growth estimate": "< -0.25"}, {"substance": "QNE", "growth estimate": "< -0.25"}, {"substance": "QNGHRLGVSRWNGVHSAKAI", "growth estimate": "< -0.25"}, {"substance": "QNGISVSSLRLRRRGLLRSV", "growth estimate": -0.246}, {"substance": "QNGRALGSWGNRLRWVG", "growth estimate": "< -0.25"}, {"substance": "QNGRKKSVGQVS", "growth estimate": "< -0.25"}, {"substance": "QNHGSI", "growth estimate": -0.246}, {"substance": "QNLKK", "growth estimate": "< -0.25"}, {"substance": "QNLRGNYNPRVRCFRLIFSP", "growth estimate": "< -0.25"}, {"substance": "QNQFVCLSNAWPIGRRLWTR", "growth estimate": "< -0.25"}, {"substance": "QNTAE", "growth estimate": "< -0.25"}, {"substance": "QNTPLLLFSSEGGGLYRVGS", "growth estimate": "< -0.25"}]}]}
